In publication PMC10352136:
No constants are given. Whether binding was seen depends on the method and setting.

Amino acid sequences for entries named in this document (tags omitted). A change or cut given only in a name is not applied to a line headed by its entry.
UniProt Q13596: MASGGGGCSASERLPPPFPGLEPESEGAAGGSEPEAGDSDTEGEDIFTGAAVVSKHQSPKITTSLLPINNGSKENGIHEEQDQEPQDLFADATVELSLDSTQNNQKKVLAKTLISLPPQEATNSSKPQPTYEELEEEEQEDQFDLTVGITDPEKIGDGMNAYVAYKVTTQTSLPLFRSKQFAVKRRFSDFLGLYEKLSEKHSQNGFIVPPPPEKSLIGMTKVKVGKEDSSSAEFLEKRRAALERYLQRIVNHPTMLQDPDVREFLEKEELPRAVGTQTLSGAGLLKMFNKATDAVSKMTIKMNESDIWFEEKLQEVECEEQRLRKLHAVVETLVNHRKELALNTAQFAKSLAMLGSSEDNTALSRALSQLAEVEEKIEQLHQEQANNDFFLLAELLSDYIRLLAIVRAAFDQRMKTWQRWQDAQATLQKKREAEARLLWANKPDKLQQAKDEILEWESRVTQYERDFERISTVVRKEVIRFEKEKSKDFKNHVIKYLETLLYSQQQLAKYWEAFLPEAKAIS

Experiments:
[1] = target: SNX1 (2 mut)^† (F347A, W511A) (human) (UniProt Q13596); assay: SEC-MALS; 100 μl of protein at 1 mg ml^−1 in 150 mM NaCl, 0.5 mM TCEP, 10 mM HEPES pH 7.5; Superdex 200 Increase 10/300 GL; both purified
[2] = target: T1, CI-MPR_(2347–2375) peptide (bipartite sorting motif of the cation-independent mannose-6-phosphate receptor tail) (UniProt P11717); assay: condition: 746 µM SNX1^PX titrated into 16 µM peptide; ITC; 25 °C, 300 mM NaCl, 0.5 mM TCEP, 25 mM HEPES pH 7.5; CI-MPR in the syringe (SNX1^PX in the syringe for its test with the peptide); one-site model; both purified
T1 sequence (peptide): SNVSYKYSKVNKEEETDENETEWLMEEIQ

Row | binding [1] | binding [2] | Substance
1 | no binding (tested: 1 mg ml^−1) | – | SNX1 (2 mut)^† (F347A, W511A) (from UniProt Q13596 1-522)
2 | – | no binding | SNX1^PX (PX domain of SNX1) (from UniProt Q13596 143-272) (domain or fragment)
